Results as given in patent US20100184851A1, “INHIBITION OF CELL PROLIFERATION” (priority 2008, published 2010).
For at least one compound, name, drawing or mass did not settle the structure.

Key:
[1] = system: A549 cells with control shRNA (having Raf-1); test: BrdU incorporation, A549 cells with control shRNA; type: cell-based, human; conditions: 20 μM
[2] = molecular target: T1, Raf-1 kinase (Homo sapiens, UniProt P04049); conditions: also kinase activity associated with cyclins D or E; cited from earlier work
T1 construct: purchased Upstate Signaling, Charlottesville, Va

Cl.N=C(N)SCc1ccc(Cl)cc1Cl [Compound 3a, (2,4-Dichlorophenyl)methyl Isothiourea Hydrochloride]
proliferation (S-phase entry, BrdU incorporation) [1]: inhibited
Raf-1 kinase activity [2]: without inhibiting Raf-1 kinase activity
